Measured data: PubChem BioAssay AID1259308 (NCATS, 2017)
Here is a random part of about 59,000 reagents. About 1,510 of them (2.6%) count as active. 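Calls use total luciferase alone and ignore viability, so some active siRNAs may act by altering cell number.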 Reagents against one gene are numbered here. Not all columns of the deposit are shown.

- Screen: 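Candidate targets for better recombinant protein yield in mammalian cells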 (primary screen)
- Cells: human HEK293 embryonic kidney cells stably expressing firefly luciferase (HEK-CMV-Luc2-Hygro)
- Knock-down reagent: single siRNA against human genes, 0.8 pmol siRNA per well
- Timing: 72 h
- Detection: 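Reporter luminescence and viable-cell signal on separate replicate plates, given as percent of non-targeting control and median/MAD z-scores, plus per-cell luciferase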
- Reading the numbers: total luciferase, z-score and total luciferase, % of control: higher = more reporter protein produced
- Active means: 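Active when the median/MAD z-score for overall luciferase is greater than 3; a gene was taken forward for validation with new siRNAs if at least two of its three siRNAs passed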
- Meaning of the calls: active = raised luciferase; inactive = no rise

NEDD1 #1 → total luciferase, z-score: 0.0251; total luciferase, % of control: 82.4; Outcome: inactive
NEDD1 #2 → total luciferase, z-score: 1.25; total luciferase, % of control: 107; Outcome: inactive
NEDD1 #3 → total luciferase, z-score: 0.597; total luciferase, % of control: 93.8; Outcome: inactive
KCNH2 #1 → total luciferase, z-score: -0.191; total luciferase, % of control: 78.1; Outcome: inactive
KCNH2 #2 → total luciferase, z-score: -3.46; total luciferase, % of control: 13.1; Outcome: inactive
KCNH2 #3 → total luciferase, z-score: -1.34; total luciferase, % of control: 55.2; Outcome: inactive
KHDRBS2 #1 → total luciferase, z-score: 4.04; total luciferase, % of control: 162; Outcome: active
KHDRBS2 #2 → total luciferase, z-score: -1.43; total luciferase, % of control: 53.4; Outcome: inactive
KHDRBS2 #3 → total luciferase, z-score: 1.82; total luciferase, % of control: 118; Outcome: inactive
ZNF467 #1 → total luciferase, z-score: 0.604; total luciferase, % of control: 93.9; Outcome: inactive
ZNF467 #2 → total luciferase, z-score: -1.23; total luciferase, % of control: 57.4; Outcome: inactive
ZNF467 #3 → total luciferase, z-score: 2.36; total luciferase, % of control: 129; Outcome: inactive
ZC3H7B #1 → total luciferase, z-score: -2.46; total luciferase, % of control: 32.9; Outcome: inactive
ZC3H7B #2 → total luciferase, z-score: -0.917; total luciferase, % of control: 63.6; Outcome: inactive
ZC3H7B #3 → total luciferase, z-score: -2.44; total luciferase, % of control: 33.3; Outcome: inactive
PLAC8 #1 → total luciferase, z-score: 2.04; total luciferase, % of control: 122; Outcome: inactive
PLAC8 #2 → total luciferase, z-score: 0.507; total luciferase, % of control: 92; Outcome: inactive
PLAC8 #3 → total luciferase, z-score: -1.33; total luciferase, % of control: 55.4; Outcome: inactive
PPFIA3 #1 → total luciferase, z-score: 0.124; total luciferase, % of control: 84.3; Outcome: inactive
PPFIA3 #2 → total luciferase, z-score: -1.21; total luciferase, % of control: 57.9; Outcome: inactive
PPFIA3 #3 → total luciferase, z-score: -1.18; total luciferase, % of control: 58.4; Outcome: inactive
PALD1 #1 → total luciferase, z-score: -0.178; total luciferase, % of control: 78.3; Outcome: inactive
PALD1 #2 → total luciferase, z-score: 0.724; total luciferase, % of control: 96.3; Outcome: inactive
PALD1 #3 → total luciferase, z-score: 0.841; total luciferase, % of control: 98.6; Outcome: inactive
EXOSC10 #1 → total luciferase, z-score: 0.0192; total luciferase, % of control: 82.3; Outcome: inactive
EXOSC10 #2 → total luciferase, z-score: 1.11; total luciferase, % of control: 104; Outcome: inactive
EXOSC10 #3 → total luciferase, z-score: 0.293; total luciferase, % of control: 87.7; Outcome: inactive
USP45 #1 → total luciferase, z-score: 0.0651; total luciferase, % of control: 83.2; Outcome: inactive
USP45 #2 → total luciferase, z-score: 0.29; total luciferase, % of control: 87.7; Outcome: inactive
USP45 #3 → total luciferase, z-score: 0.82; total luciferase, % of control: 98.2; Outcome: inactive
PECAM1 #1 → total luciferase, z-score: -2.13; total luciferase, % of control: 39.5; Outcome: inactive
PECAM1 #2 → total luciferase, z-score: 0.57; total luciferase, % of control: 93.2; Outcome: inactive
PECAM1 #3 → total luciferase, z-score: -0.774; total luciferase, % of control: 66.5; Outcome: inactive
NEFH #1 → total luciferase, z-score: 2.06; total luciferase, % of control: 123; Outcome: inactive
NEFH #2 → total luciferase, z-score: 1.73; total luciferase, % of control: 116; Outcome: inactive
NEFH #3 → total luciferase, z-score: -0.768; total luciferase, % of control: 66.6; Outcome: inactive
TPPP #1 → total luciferase, z-score: 1.11; total luciferase, % of control: 104; Outcome: inactive
TPPP #2 → total luciferase, z-score: -0.0249; total luciferase, % of control: 81.4; Outcome: inactive
TPPP #3 → total luciferase, z-score: 0.0633; total luciferase, % of control: 83.1; Outcome: inactive
VWA5B2 #1 → total luciferase, z-score: 3.12; total luciferase, % of control: 144; Outcome: active
VWA5B2 #2 → total luciferase, z-score: 0.97; total luciferase, % of control: 101; Outcome: inactive
VWA5B2 #3 → total luciferase, z-score: 0.645; total luciferase, % of control: 94.7; Outcome: inactive

4 entries from above, sorted by “total luciferase, % of control”, high to low.
PLAC8 #1 → total luciferase, z-score: 2.04; total luciferase, % of control: 122; Outcome: inactive
PLAC8 #2 → total luciferase, z-score: 0.507; total luciferase, % of control: 92; Outcome: inactive
ZC3H7B #2 → total luciferase, z-score: -0.917; total luciferase, % of control: 63.6; Outcome: inactive
ZC3H7B #3 → total luciferase, z-score: -2.44; total luciferase, % of control: 33.3; Outcome: inactive
